Experimental findings from the supplement of paper PMC8616043 are described below.

Molecules are shown by their SMILES. Structures can show the parent of a compound that is named as a salt. The list shows a part of the results. Repeats in this data set agree poorly, so a single value says little.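 The cells are human U-2 OS cells that stably carry a GFP sensor with a nuclear import signal and a classical export signal. They were transfected to make PR50, a 50-repeat proline–arginine dipeptide protein from the ALS/FTD gene C9ORF72. Each well's nuclear-minus-cytoplasm GFP signal was scaled from in-plate DMSO (low) to PR-only wells (high), then scored against the other test wells on the plate; compounds scoring well below zero were called hits that reverse the PR effect.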

The test system of this experiment is U-2 OS NCT-C biosensor cells expressing PR50. In words: Z-score of normalised NCT-C biosensor translocation index in PR50-expressing cells; higher = more nuclear biosensor (more disrupted nuclear export). To be noted: 3 µM; 24 h.
For the molecule `CCN1C[C@]2(OC(=O)c3ccccc3NC(C)=O)CC[C@H](OC)[C@@]34[C@@H]2C[C@@H]([C@@H]13)[C@@]1(O)C[C@H](OC)[C@H]2C[C@@H]4[C@]1(O)[C@H]2OC` [Lappaconitine], the Z-score is inactive: -0.887. Regarding `CC1=C2[C@H]3OC(=O)[C@@H](C)[C@@H]3CC[C@@]2(C)C=CC1=O` [Santonin], the Z-score is inactive: -0.373. Next, `C/C=C1\C[C@@H](C)[C@](O)(CO)C(=O)OCC2=CCN3CC[C@@H](OC1=O)[C@@H]23` [Retrorsine]: inactive: -0.628; `Cc1c([C@H](C)[C@@H]2NC[C@@H](C)C[C@H]2O)ccc2c1C[C@H]1[C@H]2CC=C2C[C@@H](O)CC[C@@]21C` [Veratramine]: inactive: -0.35; `CC(N)Cc1c[nH]c2ccc(O)cc12` (stereo not drawn) [alpha-Methyl-5- hydroxytryptamine maleate]: inactive: 0.116. Consider `CN1C[C@H](CO)C=C2c3cccc4[nH]cc(c34)C[C@H]21` [Lysergol], for which the Z-score is inactive: 0.637. `COC1=CC(=O)O[C@@H](CCc2ccc3c(c2)OCO3)C1` [Dihydromethysticin]: the Z-score was inactive: 0.431.

With `O=C1CCCN1CC#CCN1CCCC1` [Oxotremorine sesquifumarate salt], the Z-score is inactive: -0.885. With `CNCCc1c[nH]c2ccc(O)cc12` [N-omega-Methyl-5-hydroxytryptamine oxalate salt], the Z-score is inactive: -0.626. The result for `NCCCP(=O)(O)O` [3-Aminopropyl phosphonic acid] reads inactive: -0.0461.

With `COc1ccc(Cc2nccc3cc(OC)c(OC)cc23)cc1OC` [Papaverine hydrochloride], the Z-score is inactive: -0.586.

As for `COc1ccc2c3c4n(c2c1)[C@H](C=C(C)C)OOC(C)(C)C[C@@H]4N1C(=O)[C@@H]2CCCN2C(=O)[C@]1(O)[C@H]3O` [Verruculogen], the Z-score was inactive: -0.322.

For `NNC(=O)c1ccc(O)cc1` [4-Hydroxy benzhydrazide], the Z-score was inactive: -0.174. The result for `C=C(C)[C@H]1Cc2c(ccc3c2O[C@@H]2COc4cc(OC)c(OC)cc4[C@@H]2C3=O)O1` [Rotenone] reads inactive: 0.513; that for `COC(=O)C1=CCCN(C)C1` [Arecoline hydrobromide], inactive: 0.627; that for `Fc1ccc(C(OCCN2CCN(CCCc3ccccc3)CC2)c2ccc(F)cc2)cc1`, inactive: -0.127.

As to `NNC(N)=O` [Semicarbazide hydrochloride], the Z-score was inactive: -0.577. The result for `O=C[C@H](Cl)[C@@H](O)[C@H](O)[C@H](O)CO` [2-Chloro-2-deoxy- D-glucose] reads inactive: -0.377; that for `CC[C@H]1[C@@H]2C[C@H]3[C@@H]4N(C)c5ccccc5[C@]45C[C@@H]([C@@H]2[C@H]5O)N3[C@@H]1O` [Ajmaline], inactive: -0.211. Turning to `CS(=N)(=O)CC[C@H](N)C(=O)O` (stereo partly drawn) [L-Methionine sulfoximine], the Z-score was inactive: 0.146. For the molecule `CC1=CC(=O)C2=C(C)C[C@H](O)[C@@H]3[C@H](OC(=O)[C@H]3C)[C@@H]12` [Austricin], the Z-score is inactive: -0.328. Next, `COc1cc([C@@H]2c3cc4c(cc3[C@H](O)[C@H]3COC(=O)[C@H]23)OCO4)cc(OC)c1OC` [Podofilox]: inactive: 1.15. Next, `COc1cc([C@@H]2c3cc4c(cc3[C@H](O)[C@H]3COC(=O)[C@H]23)OCO4)cc(OC)c1OC` [Podophyllotoxin]: inactive: 1.05. The result for `COc1ccc(C(=O)O[C@H]2CC[C@@]3(C)[C@@H]4CC[C@H]5[C@]6(O)C[C@H](O)[C@@]7(O)[C@@H](CN8C[C@@H](C)CC[C@H]8[C@@]7(C)O)[C@]6(O)C[C@@]53O[C@]24O)cc1OC` [Veratridine] reads inactive: 0.618.

As for `CC[C@H]1CN2CCc3cc(OC)c(OC)cc3[C@@H]2C[C@@H]1C[C@H]1NCCc2cc(OC)c(OC)cc21` [Emetine dihydrochloride hydrate], the Z-score is inactive: 1.12.

In the case of `CC[C@H]1CN2CCc3cc(OC)c(OC)cc3[C@@H]2C[C@@H]1C[C@H]1NCCc2cc(OC)c(OC)cc21` [Emetine·2HCl], the Z-score is inactive: -0.673. The result for `CN(C)NC(=O)CCC(=O)O` [Daminozide] reads inactive: -1.87. The result for `NCCc1c[nH]c2ccc(O)cc12` [Serotonin hydrochloride] reads inactive: 0.00617; that for `CCN(C(C)=O)c1cccc(-c2ccnc3c(C#N)cnn23)c1` [Zaleplon], inactive: -0.769; that for `COc1ccc2c(c1)[nH]c1c(C)nccc12` [Harmine], inactive: -0.699. The result for `CC1(C)C(C=C(Cl)Cl)C1C(=O)OCc1cccc(Oc2ccccc2)c1` (stereo unspecified) [Permethrin] reads inactive: -0.214. Regarding `Ic1ccccc1CNC1C2CCN(CC2)C1C(c1ccccc1)c1ccccc1` [L-703,606 oxalate salt hydrate], the Z-score was inactive: 0.502. In the case of `CCCN(CCC)CCc1ccc(O)c(O)c1` [Dipropyldopamine hydrobromide], the Z-score was inactive: -0.0344. Next, `C[C@@]12N[C@@H](Cc3ccccc31)c1ccccc12` [(-)-MK-801  hydrogen maleate]: inactive: -0.124; `CCCN(CCC)[C@@H]1CCc2cccc(O)c2C1` [R-(+)-8-Hydroxy- DPAT  hydrobromide]: inactive: 0.237. The result for `C=C(C)[C@@H]1[C@H]2OC(=O)[C@@H]1[C@]1(O)C[C@H]3OC34C(=O)O[C@H]2[C@@]41C.CC(C)(O)[C@@H]1[C@H]2OC(=O)[C@@H]1[C@]1(O)C[C@H]3OC34C(=O)O[C@H]2[C@@]41C` (stereo partly specified) [Picrotoxin] reads inactive: -0.234. As for `C[C@H]1C(=O)O[C@@H]2CCN3CC=C(COC(=O)[C@](C)(O)[C@]1(C)O)[C@H]23` [Monocrotaline], the Z-score is inactive: -0.842. Take `C[C@@]1(CO)[C@H](O)CC[C@@]2(C)[C@H]1CC[C@H]1C[C@@H]3C[C@@]12CC[C@]3(O)CO` [Aphidicolin]: the Z-score is inactive: -0.0136. With `Cc1cccc([C@H](C)c2c[nH]cn2)c1C` [Dexmedetomidine·HCl], the Z-score was inactive: -0.558. The result for `CC(C)(C)NCC(O)c1ccccc1Cl` (stereo unspecified) [Tulobuterol hydrochloride] reads inactive: -0.549; that for `CC1(C(=O)O)C2CCC(O2)C1(C)C(=O)O` (stereo unspecified) [Cantharidic Acid], inactive: -0.204.

In the case of `CCN1C[C@]2(COC)CC[C@H](O)[C@@]34C5C[C@@H]6[C@@H](OC)C[C@](O)(C(CC23)C14)C5[C@H]6OC(C)=O` (stereo partly specified) [Condelphine], the Z-score was inactive: -0.0514. Turning to `CN(c1nc2ccccc2s1)C1CCN(C[C@H](O)COc2ccc(F)c(F)c2)CC1` [Lubeluzole dihydrochloride], the Z-score is inactive: -1.04.

For `NC(=O)CN1CCCC1=O` [Piracetam], the Z-score was inactive: 0.617. The result for `N#CCCN` [3-Aminopropionitrile fumarate salt] reads inactive: 0.259; that for `CN1CC[C@@]2(C)c3cc(OC(=O)Nc4ccccc4)ccc3N(C)[C@@H]12` [Phenserine], inactive: 0.33. Next, `C=C(C)[C@@H]1[C@H]2OC(=O)[C@@H]1[C@]1(O)C[C@H]3O[C@]34C(=O)O[C@H]2[C@]14C` [Picrotoxinin]: inactive: -0.875.

For `C=CCN1C[C@H](C(=O)N(CCCN(C)C)C(=O)NCC)C[C@@H]2c3cccc4[nH]cc(c34)C[C@H]21` [Cabergoline], the Z-score is inactive: 0.213.

Take `COc1c2c3c4c(c(OC)c(=O)c5c(O)cc(OC)c(c6c(OC)cc(O)c(c1=O)c63)c54)[C@@H](C(C)=O)[C@@](C)(O)C2` [Hypocrellin A]: the Z-score is inactive: -0.686. Next, `O=P1(NCCCl)OCCCN1CCCl` (stereo unspecified) [Ifosfamide]: inactive: 0.668; `CO[C@H](C)[C@](O)(C(=O)OCC1=CCN2CC[C@H](O)[C@@H]12)C(C)C` [Heliotrine]: inactive: -0.268; `Cc1c2ccncc2c(C)c2c1[nH]c1ccccc12` [Ellipticine]: inactive: -0.418. Consider `CC(C)NP(=O)(NC(C)C)OP(=O)(NC(C)C)NC(C)C` [Tetraisopropyl pyrophosphoramide], for which the Z-score is inactive: -0.796. Consider `C=C[C@]12CN(C)[C@@H]3[C@H]4CO[C@H](C[C@H]41)[C@]1(C(=O)Nc4ccccc41)[C@@H]32` [Gelsemine·HCl], for which the Z-score was inactive: 1.48.

As for `CSC(=S)NCc1c[nH]c2ccccc12` [Brassinin], the Z-score was inactive: 0.969. Next, `CC(=O)NBr` [N-Bromoacetamide]: inactive: 3.15; `CC[C@@H](C(=O)O)[C@@H]1O[C@@H]([C@@H](C)[C@H](O)[C@H](C)C(=O)[C@H](CC)[C@H]2O[C@]3(C=C[C@@H](O)[C@]4(CC[C@@](C)([C@H]5CC[C@](O)(CC)[C@H](C)O5)O4)O3)[C@H](C)C[C@@H]2C)[C@@H](C)C[C@@H]1C` [Narasin]: inactive: -0.177.

Turning to `CC[C@@H]1/C=C/C=C/C[C@H](C)[C@H](O)[C@](C)(O)C(=O)[C@H](C)[C@@H](O)[C@H](C)C(=O)[C@H](C)[C@@H](O)[C@H](C)/C=C/C(=O)O[C@H]2[C@@H](C)[C@@H](CC1)O[C@@]1(CC[C@@H](C)[C@@H](C[C@H](C)O)O1)[C@@H]2C` [Oligomycin A], the Z-score was inactive: 0.407. In the case of `CC(C)(C)[C@]1(O)CC2OC(=O)CC23C(=O)OC2OC(=O)[C@H](O)C231` (stereo partly specified) [Bilobalide], the Z-score is inactive: -0.829. With `C=C1[C@@H](C)[C@H]2[C@H](Cc3ccccc3)NC(=O)[C@]23OC(=O)/C=C/[C@H](O)CCC[C@@H](C)C/C=C/[C@H]3[C@@H]1O` [Cytochalasin B], the Z-score is inactive: -0.474. The result for `NCCc1c[nH]c2ccccc12` [Tryptamine hydrochloride] reads inactive: 0.0491.
